Measurements from article PMC2483996.
These are yes or no findings as the source states them, for the method shown.

T1: apo-Tat-RhB (Tat Lai labeled at its N-terminus by rhodamine B, without zinc) (HIV-1 Lai strain)
T1 chain: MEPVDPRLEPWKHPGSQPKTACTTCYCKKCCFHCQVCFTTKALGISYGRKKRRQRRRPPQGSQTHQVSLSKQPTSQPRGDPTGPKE

T2: holo-Tat-RhB (Tat Lai labeled at its N-terminus by rhodamine B, with zinc) (HIV-1 Lai strain)
T2 chain: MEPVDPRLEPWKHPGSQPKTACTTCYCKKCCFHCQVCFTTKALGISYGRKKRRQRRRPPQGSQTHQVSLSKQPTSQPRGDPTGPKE

B1: apo-Tat-RhB (Tat Lai labeled at its N-terminus by rhodamine B, without zinc) (protein)
chain: MEPVDPRLEPWKHPGSQPKTACTTCYCKKCCFHCQVCFTTKALGISYGRKKRRQRRRPPQGSQTHQVSLSKQPTSQPRGDPTGPKE
modifications: here or on the partner: rhodamine B on the N-terminus; rhodamine B on the N-terminus
B2: holo-Tat-RhB (Tat Lai labeled at its N-terminus by rhodamine B, with zinc) (protein)
chain: MEPVDPRLEPWKHPGSQPKTACTTCYCKKCCFHCQVCFTTKALGISYGRKKRRQRRRPPQGSQTHQVSLSKQPTSQPRGDPTGPKE
modifications: here or on the partner: rhodamine B on the N-terminus; zinc bound; rhodamine B on the N-terminus; zinc bound

Tests used:
[1] = biological target: T1, apo-Tat-RhB (Tat Lai labeled at its …); experiment: fluorescence correlation spectroscopy (FCS); two-photon FCS; 1 μM Tat-RhB in 50 mM Hepes, 0.05% IGEPAL, pH7.5, 20°C; diffusion constant and brightness; both purified; conditions: remark: other sources report otherwise
[2] = biological target: T2, holo-Tat-RhB (Tat Lai labeled at its …); experiment: as above; conditions: remark: other sources report otherwise

Row | Binder | binding [1] | binding [2]
1 | B1 | no binding (tested: 1 μM) | –
2 | B2 | – | no binding (tested: 1 μM)
